Values from PubChem BioAssay AID652243 (Drosophila RNAi Screening Center, 2013).
Screen: 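Fly genes required for human androgen receptor driven transcription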 (primary screen). Cells: Drosophila S2R+ cells. Reagents: long dsRNA against Drosophila genes. Timing: 72 h (48 h, then 24 h hormone). Challenge: synthetic androgen R1881 at 10 nM for 24 h. Detection: 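Firefly light from an androgen-responsive reporter and Renilla control light per well, raw and unnormalised, for each of two replicates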. Direction: firefly reporter light: higher = more light from androgen-responsive reporter; Renilla control light: higher = more constitutive control signal (cell number, transfection). Hit rule: 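Across duplicate plates, a knock-down whose log firefly/Renilla ratio shifted a set fold down or up from the GFP/LacZ control mean was a hit; the downward cut appears as both 1.5 and 3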. Meaning of the calls: active = hit: reporter lowered or raised; inactive = no hit.
In all, the deposit lists about 24,000 reagents; below is an unselected part of those with a known target gene and a result. Of all reagents, 246 (1%) are marked active. 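Plates not normalised; calls are printed but the firefly/Renilla ratio behind them is not deposited; fold cut for lowering reported inconsistently.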 The raw values are shown without normalisation. Entries without a mark were called inactive. The numbers tell different reagents against one gene apart. Not stated in the record: the amount of reagent.

| target gene | reagent | firefly reporter light, replicate 1 | firefly reporter light, replicate 2 | Renilla control light, replicate 1 | Renilla control light, replicate 2 |
| --- | --- | --- | --- | --- | --- |
| Cyp317a1 | 1 | 1.30e5 | 1.12e5 | 2.22e6 | 2.22e6 |
| PGRP-LB | 1 | 49346 | 83212 | 4.91e5 | 3.78e5 |
| CG11226 | 1 | 1.56e5 | 1.36e5 | 1.56e6 | 1.69e6 |
| CG13138 | 1 | 2.22e5 | 1.74e5 | 1.37e6 | 9.92e5 |
| CG32091 | 1 | 1.41e5 | 1.64e5 | 2.03e6 | 1.71e6 |
| CG1924 | 1 | 4.90e5 | 5.16e5 | 2.52e6 | 2.67e6 |
| CG1924 | 2 | 6.98e5 | 8.17e5 | 7.06e5 | 6.75e5 |
| Hug | 1 | 1.82e5 | 1.52e5 | 2.12e6 | 1.77e6 |
| Hug | 2 | 3.35e5 | 2.95e5 | 1.37e6 | 1.30e6 |

Entries listed so far whose target name begins with H or h (2):
| target gene | reagent | firefly reporter light, replicate 1 | firefly reporter light, replicate 2 | Renilla control light, replicate 1 | Renilla control light, replicate 2 |
| --- | --- | --- | --- | --- | --- |
| Hug | 1 | 1.82e5 | 1.52e5 | 2.12e6 | 1.77e6 |
| Hug | 2 | 3.35e5 | 2.95e5 | 1.37e6 | 1.30e6 |

Next entries follow:
| target gene | reagent | firefly reporter light, replicate 1 | firefly reporter light, replicate 2 | Renilla control light, replicate 1 | Renilla control light, replicate 2 |
| --- | --- | --- | --- | --- | --- |
| CG13193 | 1 | 3.89e5 | 2.69e5 | 2.72e6 | 2.30e6 |
| Golgin104 | 1 | 32170 | 9536 | 2.50e5 | 1.53e5 |
| Golgin104 | 2 | 3.03e5 | 3.04e5 | 8.37e5 | 7.75e5 |
| garz | 1 | 2.70e5 | 2.85e5 | 1.37e6 | 1.44e6 |
| CG1213 | 1 | 71620 | 36225 | 1.45e6 | 1.18e6 |
| AP-2alpha | 1 | 1.05e5 | 79571 | 4.78e5 | 5.88e5 |
| AP-2alpha | 2 | 2.42e5 | 2.46e5 | 4.91e5 | 8.05e5 |
| phr6-4 | 1 | 1.35e5 | 1.16e5 | 1.49e6 | 1.59e6 |
| phr6-4 | 2 | 2.76e5 | 3.74e5 | 4.04e5 | 4.55e5 |
| Trax | 1 | 82617 | 50850 | 4.06e5 | 4.73e5 |
| Tmep | 1 | 6.94e5 | 8.49e5 | 1.64e6 | 1.83e6 |
| Tmep | 2 | 3.61e5 | 3.04e5 | 7.39e5 | 6.94e5 |
| eIF6 | 1 | 8.69e5 | 1.10e6 | 1.47e6 | 1.98e6 |
| eIF6 | 2 | 5.21e5 | 5.04e5 | 1.42e6 | 1.31e6 |
| Gr33a | 1 | 2.59e5 | 1.58e5 | 1.43e6 | 9.36e5 |
